# Experimental data taken from the supplement of paper PMC10689618.
# The list shows a part of the results. Repeats are few or missing, and single values can be far off.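 Primary human fetal astrocytes engulfed labelled rat cortical synaptosomes, measured as a red/green ratio corrected for calcein live-cell signal and scaled to the plate median. Toxicity meant calcein falling over 30%; decreased phagocytosis meant below 70% of median above 5 µM.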
# Assays:
# Human fetal astrocytes [1] = experiment: loss of total cells relative to no-compound high-control median (toxicity); higher = more toxic (fewer cells); conditions: 24 h
# Human fetal astrocytes [2] = experiment: synaptosome phagocytosis (pHrodo/calcein intensity ratio) relative to plate median of data wells; higher = more phagocytosis; conditions: 24 h
Compound,loss of total cells (Human fetal astrocytes [1]; 1.39 µM) [%],loss of total cells (Human fetal astrocytes [1]; 2.78 µM) [%],loss of total cells (Human fetal astrocytes [1]; 5.56 µM) [%],loss of total cells (Human fetal astrocytes [1]; 11.11 µM) [%],loss of total cells (Human fetal astrocytes [1]; 22.22 µM) [%],synaptosome phagocytosis (Human fetal astrocytes [2]; 1.39 µM) [%],synaptosome phagocytosis (Human fetal astrocytes [2]; 2.78 µM) [%],synaptosome phagocytosis (Human fetal astrocytes [2]; 5.56 µM) [%],synaptosome phagocytosis (Human fetal astrocytes [2]; 11.11 µM) [%],synaptosome phagocytosis (Human fetal astrocytes [2]; 22.22 µM) [%]
Cc1c(N(C)C)c(=O)n(-c2ccccc2)n1C,22.7,9,0,1.3,7.6,110,73.2,110,88.6,93.2
O=c1c(O)cccc2cc(O)c(O)c(O)c12,9.7,9.7,15.2,10.5,32.6,87.5,90.3,91.9,83.1,105
NCCCC(O)(P(=O)(O)O)P(=O)(O)O,-56.5,-42.9,6.8,37,0.9,93.2,117,125,140,124
COc1cc(N)c(Cl)cc1C(=O)NC1CCN(Cc2ccccc2)CC1,-49,-5.2,10.5,-18.8,-5.1,110,91.6,87.7,157,89.2
CN1CCN(CCCN2c3ccccc3Sc3ccc(Cl)cc32)CC1,12.2,4.4,7.7,13.5,18.5,95.1,115,110,57.3,36.6
COc1ccc2c(c1)OC/C(=C\c1ccc(OC)c(O)c1)C2=O,-19.2,-10,32.8,11.6,27.8,86.9,111,130,83.4,85.9
C[C@@H]1[C@H](O)[C@@H](C)/C=C/C=C/C=C/C=C/C=C/C=C/C=C/[C@H](O[C@@H]2O[C@H](C)[C@@H](O)[C@H](N)[C@@H]2O)C[C@@H]2O[C@](O)(C[C@@H](O)C[C@@H](O)[C@H](O)CC[C@@H](O)C[C@@H](O)CC(=O)O[C@H]1C)C[C@H](O)[C@H]2C(=O)O,-1.7,-2.1,18.9,1.6,11.3,107,113,132,112,93.2
CCN[C@@H]1C[C@H](N)[C@@H](O[C@H]2OC(CN)=CC[C@H]2N)[C@H](O)[C@H]1O[C@H]1OC[C@](C)(O)[C@H](NC)[C@H]1O,-18.5,-19,5,8.9,12.1,102,132,148,103,106
CC(C)(Oc1ccc(Cl)cc1)C(=O)O,3.2,1.1,18.1,5.4,30.3,107,91.6,118,100,120
COc1cc(/C=C/C(=O)O)cc(OC)c1OC,-35.1,2,-16,0.6,1.1,73.8,136,79.9,112,130
C=C[C@H]1CN2CC[C@H]1C[C@@H]2[C@@H](O)c1ccnc2ccc(OC)cc12,6.2,-20,-14.6,3.7,-2.1,83.2,74.7,97.3,86.7,112
C[C@@H]1O[C@@H](O[C@H]2[C@H](Oc3cc(O)c4c(=O)cc(-c5ccc(O)cc5)oc4c3)O[C@H](CO)[C@@H](O)[C@@H]2O)[C@H](O)[C@H](O)[C@H]1O,-22.1,5.4,0,5.4,11.9,78.6,109,110,82.3,103
CC(=O)O[C@]1(C(C)=O)CC[C@H]2[C@@H]3C[C@H](C)C4=CC(=O)CC[C@]4(C)[C@H]3CC[C@@]21C,0.9,-26.8,0,-8.4,-14.9,130,83.4,83.1,119,84.4
CCCOc1ccc2[nH]c(NC(=O)OC)nc2c1,-29.8,-31,-5.6,10.8,6.5,97,86.5,108,107,111
CC1=C(/C=C/C(C)=C/C=C/C(C)=C/C=C/C=C(C)/C=C/C=C(C)/C=C/C2=C(C)C(=O)[C@@H](O)CC2(C)C)C(C)(C)C[C@H](O)C1=O,-35.2,-7.6,-15.4,-10.8,-7.4,80.2,112,106,87.5,126
CC(C)(C)NC[C@H](O)c1ccc(O)c(CO)c1,3.3,-11.3,-33.3,-2.3,-7.9,93.5,84.9,84.5,70.6,82.3
CC(C)=CCC1=C(O)c2ccccc2C(=O)C1=O,9.7,6.9,21,18,27.3,114,130,144,100,157
N=C(N)NC(=O)c1nc(Cl)c(N2CCCCCC2)nc1N,-12.3,0.4,2.9,20.9,20,108,86.7,99.7,59.5,98.2
Oc1cccc(O)c1,0.9,-41.7,-12.5,-10.1,8.2,108,108,97.3,104,109
CC[C@H]1OC(=O)[C@H](C)C(=O)[C@H](C)[C@@H](O[C@@H]2O[C@H](C)C[C@H](N(C)C)[C@H]2O)[C@](C)(OC)C[C@@H](C)C(=O)[C@H](C)[C@H]2N(CCCCn3cnc(-c4cccnc4)c3)C(=O)O[C@]12C,-21,-23,11.2,44.9,7.2,96.4,105,105,131,126
O=C(O)c1cc(=O)c2cccc(O)c2[nH]1,13.4,13.4,1.4,0.4,24.2,93.2,87.3,134,107,146

Compound,loss of total cells (Human fetal astrocytes [1]; 1.39 µM) [%],loss of total cells (Human fetal astrocytes [1]; 2.78 µM) [%],loss of total cells (Human fetal astrocytes [1]; 5.56 µM) [%],loss of total cells (Human fetal astrocytes [1]; 11.11 µM) [%],loss of total cells (Human fetal astrocytes [1]; 22.22 µM) [%],synaptosome phagocytosis (Human fetal astrocytes [2]; 1.39 µM) [%],synaptosome phagocytosis (Human fetal astrocytes [2]; 2.78 µM) [%],synaptosome phagocytosis (Human fetal astrocytes [2]; 5.56 µM) [%],synaptosome phagocytosis (Human fetal astrocytes [2]; 11.11 µM) [%],synaptosome phagocytosis (Human fetal astrocytes [2]; 22.22 µM) [%]
OC(Cn1cncn1)(Cn1cncn1)c1ccc(F)cc1F,-30.7,10.1,-1.5,-24.2,2.8,93.7,92.6,100,131,103
O=C1c2ccccc2C(=O)C1c1ccccc1,14.9,-7,19.5,-15.6,10.8,112,92.9,119,99.8,143
CCCCc1nc(Cl)c(CO)n1Cc1ccc(-c2ccccc2-c2nnn[nH]2)cc1,-15.8,-5.8,7.5,-14.1,0,91.5,112,96.6,124,89.6
Oc1cc(O)c2c(c1)O[C@H](c1cc(O)c(O)c(O)c1)[C@H](O)C2,-4.7,2.7,-29.8,12.3,27.8,106,109,79.3,81.7,107
O=C1c2ccccc2C(=O)C1c1ccc(Br)cc1,6.5,-45.2,6.8,42.3,-7.8,116,105,123,149,99.3
Nc1ccc(S(=O)(=O)c2ccc(N)cc2)cc1,6.2,-22.7,0,2.6,-2.1,89.6,99.2,93.6,95.1,92.4
C[C@H](CCC(=O)O)[C@H]1CC[C@H]2[C@@H]3CC[C@@H]4C[C@H](O)CC[C@]4(C)[C@H]3CC[C@]12C [Lithocholic acid 5.beta.-Cholan-24-oic acid-3.alpha.-ol],-3.2,3.2,7.2,-3.8,1.5,47.6,99.2,93.8,98.3,94.7
CC(=O)N1CCN(c2ccc(OCC3COC(Cn4ccnc4)(c4ccc(Cl)cc4Cl)O3)cc2)CC1 (stereo not given),-4.5,1,7,-3.2,32.5,100,104,107,93.4,101
C[N+](C)(C)CCOP(=O)(O)OP(=O)([O-])OC[C@H]1O[C@@H](n2ccc(N)nc2=O)[C@H](O)[C@@H]1O,-38.7,-5.6,-1.9,23.3,-0.3,93.4,114,128,144,119
O=C1C(CC[S+]([O-])c2ccccc2)C(=O)N(c2ccccc2)N1c1ccccc1 (stereo not given),0.9,-5.1,6.3,-11.2,34.3,110,103,104,116,122
CCCCCCCCNC(C)C(O)c1ccc(SC(C)C)cc1 (stereo not given),6.6,8.8,23.7,-37.5,71.4,58.3,75,72.3,3.3,24.4
CC(=O)Oc1c(C)c(C)c2c(c1C)CCC(C)(CCCC(C)CCCC(C)CCCC(C)C)O2 (stereo not drawn) [alpha-TOCHOPHERYL ACETATE],-14.9,0.3,-8.7,-17.2,11.9,83.2,104,102,127,110
COc1cc(-c2coc3cc(O[C@@H]4O[C@H](CO)[C@@H](O)[C@H](O)[C@H]4O)c(OC)c(O)c3c2=O)cc(O)c1OC,36.6,28.6,-16,49,18.1,136,127,104,120,137
CC1(C)C=Cc2cc3ccc(=O)oc3cc2O1,38,3.3,-32.1,11,-1.1,147,107,55.2,136,102
CCC(=O)OCC(=O)[C@@]1(OC(=O)CC)[C@@H](C)C[C@H]2[C@@H]3CCC4=CC(=O)C=C[C@]4(C)[C@@]3(F)[C@@H](O)C[C@@]21C,-26.6,31,3.1,44.9,7.8,84.1,113,80.1,135,82.2
CC1=Nc2ccc(Cl)cc2S(=O)(=O)N1 [Diazoxide],8.3,7.3,-20.6,18.1,17.4,138,101,97.3,106,104
CO/N=C(\C(=O)N[C@@H]1C(=O)N2C(C(=O)O)=C(CSc3nc(=O)c(O)nn3C)CS[C@H]12)c1csc(N)n1,-33.1,-34.9,11.8,11.5,18.4,84.4,104,136,100,128
COc1ccc(-c2coc3cc(OC)ccc3c2=O)cc1,22.7,10.5,-2.9,13.8,2.3,91.3,99.9,101,66.5,93.5
CCCCC(=O)N(Cc1ccc(-c2ccccc2-c2nnn[nH]2)cc1)[C@H](C(=O)O)C(C)C,5,17.4,20.7,-4.7,18.7,92.1,96.5,128,95.3,114
CN[C@@H]1[C@H](O)[C@H](NC)[C@H]2O[C@@]3(O)C(=O)C[C@@H](C)O[C@H]3O[C@@H]2[C@H]1O,16.9,-3.1,-8.4,14.7,-35,120,100,84.4,107,88.2

# 3 entries from above, ordered by molar mass, descending:
Compound,loss of total cells (Human fetal astrocytes [1]; 1.39 µM) [%],loss of total cells (Human fetal astrocytes [1]; 2.78 µM) [%],loss of total cells (Human fetal astrocytes [1]; 5.56 µM) [%],loss of total cells (Human fetal astrocytes [1]; 11.11 µM) [%],loss of total cells (Human fetal astrocytes [1]; 22.22 µM) [%],synaptosome phagocytosis (Human fetal astrocytes [2]; 1.39 µM) [%],synaptosome phagocytosis (Human fetal astrocytes [2]; 2.78 µM) [%],synaptosome phagocytosis (Human fetal astrocytes [2]; 5.56 µM) [%],synaptosome phagocytosis (Human fetal astrocytes [2]; 11.11 µM) [%],synaptosome phagocytosis (Human fetal astrocytes [2]; 22.22 µM) [%]
COc1cc(N)c(Cl)cc1C(=O)NC1CCN(Cc2ccccc2)CC1,-49,-5.2,10.5,-18.8,-5.1,110,91.6,87.7,157,89.2
CC(C)=CCC1=C(O)c2ccccc2C(=O)C1=O,9.7,6.9,21,18,27.3,114,130,144,100,157
Oc1cccc(O)c1,0.9,-41.7,-12.5,-10.1,8.2,108,108,97.3,104,109
